# In US20090100532A1, “TRANSGENIC MICE EXPRESSING HYPERSENSITIVE NICOTINIC RECEPTORS” (CALIFORNIA INSTITUTE OF TECHNOLOGY, priority 2007, published 2009):
# These are yes or no findings as the source states them, for the method shown. Some binding calls cover weakened binding; strength is not graded here.
# Target: β3-CFP^P379 (mouse) (UniProt Q8BMN3)
# Test: acceptor photobleaching FRET, N2a cells, untagged β2 coexpressed
substance,measurement,value
α6-YFP^A405 (from UniProt Q9R0W9 31-405; Q9R0W9 406-494) (receptor),binding,binds
